Test results reported in article PMC7819943, “Rice protein-binding microarrays: a tool to detect cis-acting elements near promoter regions in rice”.
The list shows a part of the results.

The sequences below were run against T1, OsSMF1 (Oryza sativa, UniProt Q6ZLB0 1-436) (assay: protein-binding microarray (RPBM); PBS, 2% BSA, 51.3 ng/ul salmon testes DNA, 50 uM zinc acetate, 200 nM TF, 25 C, 1 h; high values mean tight binding). Conditions: protein: recombinant; tags: N-terminal polyhistidine and DsRed monomer fusion (pET32a); chain copies: 2; label: CyDye5-dUTP incorporated in the synthesized complementary strand; 3' TTTTT single-stranded linker to array surface; dsDNA, one strand shown.
T1 sequence: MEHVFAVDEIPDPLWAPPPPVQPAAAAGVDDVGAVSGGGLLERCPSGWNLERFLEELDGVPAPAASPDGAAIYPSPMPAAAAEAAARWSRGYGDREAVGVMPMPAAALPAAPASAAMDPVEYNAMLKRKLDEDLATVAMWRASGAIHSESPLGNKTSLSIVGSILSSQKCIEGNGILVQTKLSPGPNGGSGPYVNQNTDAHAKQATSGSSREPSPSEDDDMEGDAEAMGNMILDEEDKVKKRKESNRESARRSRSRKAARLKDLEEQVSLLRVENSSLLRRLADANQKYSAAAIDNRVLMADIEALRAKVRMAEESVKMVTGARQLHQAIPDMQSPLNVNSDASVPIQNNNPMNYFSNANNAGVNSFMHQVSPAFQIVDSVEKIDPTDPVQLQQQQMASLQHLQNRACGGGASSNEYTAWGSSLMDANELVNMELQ
Summary of the method: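 Binding signal here means per-feature fluorescence intensity in arbitrary units. The values were read on an Axon 4000B scanner after a custom Agilent array, double-stranded by primer extension with Cy5-dUTP, was incubated with 200 nM protein at 25 °C for 1 h in PBS with 2% BSA, salmon testes DNA and 50 µM zinc acetate, then washed. The proteins were transcription factors with an N-terminal polyhistidine tag and DsRed, expressed in E. coli BL21-CodonPlus and purified on Ni–NTA.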

Sequence	binding signal
ATTTTGGTCAAATTTAAACTAATCTAAGTTTGACTAATTTCGGAGTCACCTAGTGCAG	8280 fluorescence intensity (a.u.)
GCACGCGGCGTCTCCACGTGTCCAGCCCGCGGCTGCTGCGCGGAGTCACCTAGTGCAG	7950 fluorescence intensity (a.u.)
GCCGTGGGCCCCACATGTCATTGGAACAGCGTGTGTCTCCCGGAGTCACCTAGTGCAG	4580 fluorescence intensity (a.u.)
CATGATATATCATCAATTTGGCTTACTTGGCATCTTATTTCGGAGTCACCTAGTGCAG	3670 fluorescence intensity (a.u.)
TATGGACAGTGCCACCTCCTTCTTCCCGGTTGCTTCAGAGCGGAGTCACCTAGTGCAG	4730 fluorescence intensity (a.u.)
GATGGGTCAGATGATGACGACGACGATGATGAAGATGACGCGGAGTCACCTAGTGCAG	4070 fluorescence intensity (a.u.)
CTACATCAGCTATATCTATTGTTGCTCTTACACTAAATTACGGAGTCACCTAGTGCAG	23700 fluorescence intensity (a.u.)
CTTCTTCCATCCAACCCATTGCATGGTGTATTTTCCATATCGGAGTCACCTAGTGCAG	3410 fluorescence intensity (a.u.)
CCAAAGTTTGTATACACGTATGCAAAGTTTGTATACACGTCGGAGTCACCTAGTGCAG	8060 fluorescence intensity (a.u.)
TCCCTTTCATGTCAGCATCGGATTGCGTCCGAACAAAGTCCGGAGTCACCTAGTGCAG	4270 fluorescence intensity (a.u.)
ACATGGCCACGTGGGAGTTTCACCTAGCTAGTCGTGTATACGGAGTCACCTAGTGCAG	7090 fluorescence intensity (a.u.)
GTCAAGTTGCCATGTCATCAAATACTGCCCATAATACTGCCGGAGTCACCTAGTGCAG	19900 fluorescence intensity (a.u.)
TGCATTGCACACACCCATCTTGATAAGTACGTCATGCTTACGGAGTCACCTAGTGCAG	4000 fluorescence intensity (a.u.)
AGCACCGCAGATAACATGGTCTGACGCTATCTCAGATTTCCGGAGTCACCTAGTGCAG	4150 fluorescence intensity (a.u.)
GGCGGAGAGGGTATGGACAACAGCGCCGAGGTGGCGTGGCCGGAGTCACCTAGTGCAG	5480 fluorescence intensity (a.u.)
TGGAACTAAATCTTAGTCAGAATGACACGAAAGGATCGAACGGAGTCACCTAGTGCAG	3240 fluorescence intensity (a.u.)
GCCGTGACGTCCCCGCTGACGCCTCTCTCCGTTGGACGCGCGGAGTCACCTAGTGCAG	7740 fluorescence intensity (a.u.)
CCCGCCACGTGTCCGACCCGCACCCCGCCCGGTCGGTCCCCGGAGTCACCTAGTGCAG	11000 fluorescence intensity (a.u.)
GAGAGGGGATGGGGTTGAGTGGTGGGGCCTATGATTGGCACGGAGTCACCTAGTGCAG	4090 fluorescence intensity (a.u.)
ATCAGTGACGGTAAGGATAGTATCATTGGGTGTGTTCGGTCGGAGTCACCTAGTGCAG	3150 fluorescence intensity (a.u.)
ACCGGTGTTCAGAGCCTAGTTCAGAACAGGAATATCACCACGGAGTCACCTAGTGCAG	4240 fluorescence intensity (a.u.)

Sequence	binding signal
CATTGCCCCAAAAGTACAGAGAACACATAGGGCCTATTTACGGAGTCACCTAGTGCAG	7330 fluorescence intensity (a.u.)
TTAACGTTGTAAGCCCATGAGGAGAGTCGAATCCAGATCACGGAGTCACCTAGTGCAG	3270 fluorescence intensity (a.u.)
TAATTCCAACGACACACGCTTGGTCAGAGCTCAATATGCCCGGAGTCACCTAGTGCAG	4610 fluorescence intensity (a.u.)
CGAGTGGTGGGGTGGGGAGTCGCGTGCCCGCGCCGAGACCCGGAGTCACCTAGTGCAG	3890 fluorescence intensity (a.u.)
AGGGTTTGGCACGGGCGGGGCGGAGGCGCGCTGCACACATCGGAGTCACCTAGTGCAG	3820 fluorescence intensity (a.u.)
AGGTGCAGATGCTACTACTGATCTGGAACAGTGATCTCCACGGAGTCACCTAGTGCAG	3180 fluorescence intensity (a.u.)
GAGAGATTCCTGGCTTCCTGCCTCACGCGCACGCACACCACGGAGTCACCTAGTGCAG	16400 fluorescence intensity (a.u.)
ACACAGCCACGCCCGTACGCAGCTACGTACGCACGCATCACGGAGTCACCTAGTGCAG	5670 fluorescence intensity (a.u.)
GATACTATGTTCAACCGGTGACTAGCCTGGAGCTTCTTCTCGGAGTCACCTAGTGCAG	4300 fluorescence intensity (a.u.)
CCAGGGCTGCCCCAAATCTGACTCGGTTTTGGGACTGGATCGGAGTCACCTAGTGCAG	4570 fluorescence intensity (a.u.)
GAGAGAGAGACAGAGACAGAGACAGAGCAAGAACACCTCCCGGAGTCACCTAGTGCAG	23400 fluorescence intensity (a.u.)
AATTAATCCATTATTAACAAATGTTTACTGTAGCATCACACGGAGTCACCTAGTGCAG	51600 fluorescence intensity (a.u.)
CGCATTGGACAACCTTGACGTGGTGGCCGTCCTCCCGGAGCGGAGTCACCTAGTGCAG	6100 fluorescence intensity (a.u.)
TGTAGTAATCGATATGTGGGACCCAGTGGGACCCGCATCTCGGAGTCACCTAGTGCAG	27500 fluorescence intensity (a.u.)
TCGATCTCGATCGCCATGTCATTGCTCATCACAAGCATCTCGGAGTCACCTAGTGCAG	5920 fluorescence intensity (a.u.)
TCGGATCGAATTGCCACGTAAGCGCCACGTCGATGCCACACGGAGTCACCTAGTGCAG	33000 fluorescence intensity (a.u.)
CCGCAGTCGTAAGCCACGTCCTTTCACTAACATGTGAACCCGGAGTCACCTAGTGCAG	9040 fluorescence intensity (a.u.)
AATATTAGTCACACATAAAGTACTATTCATGTATTATCATCGGAGTCACCTAGTGCAG	3240 fluorescence intensity (a.u.)
AAGCGAGATGGATGGTATAGGGTGGCGTGGACGGCGGCGGCGGAGTCACCTAGTGCAG	4090 fluorescence intensity (a.u.)
AGCGGCGCCGGATCAGCCGTGATCACGCCGTCGTGCGCCACGGAGTCACCTAGTGCAG	24800 fluorescence intensity (a.u.)
CTTGCAAGCTTTTGTGAGCTCATCAGCACTGGCATCTCCACGGAGTCACCTAGTGCAG	3400 fluorescence intensity (a.u.)

Sequence	binding signal
TTTTCGGAGATAAACGTGGAGTTATATCCAGTATTGCGGTCGGAGTCACCTAGTGCAG	4020 fluorescence intensity (a.u.)
GTCGCCGCACACGCCACAGTCGTCGTTGCACACACGCGCCCGGAGTCACCTAGTGCAG	3820 fluorescence intensity (a.u.)
GCCACAATAAAATATTATCCACATATGGCAGTGTTCGTTTCGGAGTCACCTAGTGCAG	3360 fluorescence intensity (a.u.)
GGTCCCTCAGCGGTTTTGGCTGACGTGGCGCATACGTGGCCGGAGTCACCTAGTGCAG	51700 fluorescence intensity (a.u.)
TATATATACTCATCGTGACACATGGTAAGAGCTTACTAAGCGGAGTCACCTAGTGCAG	3700 fluorescence intensity (a.u.)
CCTCAACATATGGGCTGACACGACACGCCTGTGTGGTGAGCGGAGTCACCTAGTGCAG	7110 fluorescence intensity (a.u.)
GCCGCCGGCGAGAGGCGTTCCGGTCGAGGTCGAGGTCGAGCGGAGTCACCTAGTGCAG	3210 fluorescence intensity (a.u.)
TGGCCGCTTCGCGCCATGACACGGCGCCGCTCTGACCGCCCGGAGTCACCTAGTGCAG	6130 fluorescence intensity (a.u.)
CTATCGTGCCATGCGCCTATGCCACGCGGTGCCCGCGCCGCGGAGTCACCTAGTGCAG	4020 fluorescence intensity (a.u.)
GCTTCGGCGCGCGCGCCACCTGGCAGTGGGCGCCCTTCCTCGGAGTCACCTAGTGCAG	4640 fluorescence intensity (a.u.)
TGCGCCACAGTGAACCCGACAGCTGGACAACCGGACACCCCGGAGTCACCTAGTGCAG	4330 fluorescence intensity (a.u.)
GTCACCGTGACTGGCGTTGCCAAACTAGCGTGAACAAAAGCGGAGTCACCTAGTGCAG	23400 fluorescence intensity (a.u.)
GCCGGTGTGGTCGATGCCGACGATGCTGCCGTCGTTCCTGCGGAGTCACCTAGTGCAG	3700 fluorescence intensity (a.u.)
ACGCCGACACGACGTCCTCTCTCCTTTCGCCTCCTCATCCCGGAGTCACCTAGTGCAG	3940 fluorescence intensity (a.u.)
AATCTTCAAACTTTATTTGGAACGGCCCTTAGGCTCTTAGCGGAGTCACCTAGTGCAG	13800 fluorescence intensity (a.u.)
CACCAGTATCGTGCAAAACACGTCCCCATCCAACTCGCGGCGGAGTCACCTAGTGCAG	4100 fluorescence intensity (a.u.)
CAGTTGACCGCCACGTAGAACCTGTTCCTCCAGCTCACCACGGAGTCACCTAGTGCAG	9340 fluorescence intensity (a.u.)
TCTTCCAAATGAACTGGCAATATACTTGTACACGTTCTGTCGGAGTCACCTAGTGCAG	3190 fluorescence intensity (a.u.)
TAATATGTATAAATTTGGTCTCTACTTTATCCTTCAATTTCGGAGTCACCTAGTGCAG	6170 fluorescence intensity (a.u.)
TCAGAAAGGTGAGATCGATGCCACGCATTCATGCAGACACCGGAGTCACCTAGTGCAG	6990 fluorescence intensity (a.u.)
AATATAATGTTACTGCATGCATGTATATGACGTTACTGTACGGAGTCACCTAGTGCAG	3520 fluorescence intensity (a.u.)

Sequence	binding signal
GGGAGAAGTCCATGACCATGCGTCTGCACTCTACAGTACTCGGAGTCACCTAGTGCAG	3830 fluorescence intensity (a.u.)
GAGGCAAGGAAAGGAAGGAAGCTAGCACGCACATATCCAGCGGAGTCACCTAGTGCAG	3300 fluorescence intensity (a.u.)
TAGGAGTCATATGCCACGTGCAGGTTTCTTGAGGCGAGAACGGAGTCACCTAGTGCAG	8320 fluorescence intensity (a.u.)
GCCGATGACGACAGCTCCTCCTCCACCACAACGACAACCTCGGAGTCACCTAGTGCAG	5930 fluorescence intensity (a.u.)
CCGCTGCCGCGTCGTGTACGTGTGTATATACGCCGCGCCGCGGAGTCACCTAGTGCAG	3980 fluorescence intensity (a.u.)
CGGAACCTTCGCCTTCGACGTCATACAATGGGAGAAGGCGCGGAGTCACCTAGTGCAG	4060 fluorescence intensity (a.u.)
AGGAAGCGCGATGAAGCAGAGTGCATGACGGGGAGTAACCCGGAGTCACCTAGTGCAG	4180 fluorescence intensity (a.u.)
CTACTCATTGGTATTGATATGTCTGGATGACTGGATGGATCGGAGTCACCTAGTGCAG	4320 fluorescence intensity (a.u.)
TGCCCCATCCCAGCCCAAGCCCACACGTGACGTAGTGGGCCGGAGTCACCTAGTGCAG	5070 fluorescence intensity (a.u.)
CTAGTAATTTGGTGTGGGATTTGTTGTTTACTTGTTTTCACGGAGTCACCTAGTGCAG	3420 fluorescence intensity (a.u.)
CAATAATACCACACGTGGGCAGTGGGCTGGGATGCTTGTGCGGAGTCACCTAGTGCAG	4830 fluorescence intensity (a.u.)
ATGGCGCAGAGACATGACACATCACCGGTCAACACACCGTCGGAGTCACCTAGTGCAG	7070 fluorescence intensity (a.u.)
CACCGCGTTCACCCGCCGCCGCCGCCTCGCCCTTCCGCCACGGAGTCACCTAGTGCAG	3270 fluorescence intensity (a.u.)
CTCTAACCCAATGCCACCACATCCGCGCCTCCCTAGCCGACGGAGTCACCTAGTGCAG	3880 fluorescence intensity (a.u.)
GTATTTCCTCCGTTTCACAATGTAAGACTTTCTAACATTGCGGAGTCACCTAGTGCAG	26600 fluorescence intensity (a.u.)
GCAGACGACGATCTGAATTTCTGATTACAGCTGTACTACGCGGAGTCACCTAGTGCAG	3320 fluorescence intensity (a.u.)
CTGCACACAACGCGCACGTCATGATTGGCACTAGTACACGCGGAGTCACCTAGTGCAG	5510 fluorescence intensity (a.u.)
GATTGGCCAAAACAAATGGCGACCGCATTACCCCGTTCTCCGGAGTCACCTAGTGCAG	3410 fluorescence intensity (a.u.)
CGATAGATTTCACCGAGCATGACATCGTCAGCAATATCAGCGGAGTCACCTAGTGCAG	5740 fluorescence intensity (a.u.)
TTAGGAGTTGTAGCTCTACCAAACATGCACTAAATTATTACGGAGTCACCTAGTGCAG	3160 fluorescence intensity (a.u.)
GGAGAAGGCCTGGTTCAACGGTGCCGTGGCCTCGTTCGCGCGGAGTCACCTAGTGCAG	3850 fluorescence intensity (a.u.)

For reference, part of the list above:
Sequence	binding signal
CCGCTGCCGCGTCGTGTACGTGTGTATATACGCCGCGCCGCGGAGTCACCTAGTGCAG	3980 fluorescence intensity (a.u.)
CGGAACCTTCGCCTTCGACGTCATACAATGGGAGAAGGCGCGGAGTCACCTAGTGCAG	4060 fluorescence intensity (a.u.)
AGGAAGCGCGATGAAGCAGAGTGCATGACGGGGAGTAACCCGGAGTCACCTAGTGCAG	4180 fluorescence intensity (a.u.)
CTACTCATTGGTATTGATATGTCTGGATGACTGGATGGATCGGAGTCACCTAGTGCAG	4320 fluorescence intensity (a.u.)
TGCCCCATCCCAGCCCAAGCCCACACGTGACGTAGTGGGCCGGAGTCACCTAGTGCAG	5070 fluorescence intensity (a.u.)
CTAGTAATTTGGTGTGGGATTTGTTGTTTACTTGTTTTCACGGAGTCACCTAGTGCAG	3420 fluorescence intensity (a.u.)
CAATAATACCACACGTGGGCAGTGGGCTGGGATGCTTGTGCGGAGTCACCTAGTGCAG	4830 fluorescence intensity (a.u.)
ATGGCGCAGAGACATGACACATCACCGGTCAACACACCGTCGGAGTCACCTAGTGCAG	7070 fluorescence intensity (a.u.)
CACCGCGTTCACCCGCCGCCGCCGCCTCGCCCTTCCGCCACGGAGTCACCTAGTGCAG	3270 fluorescence intensity (a.u.)
